For some of these results: Negatives hold for the conditions tested. At least one verdict was read from the data and is not stated in words by the source. For some of these results: The exact form of at least one protein or probe is not confirmed. For some of these results: Where a protein sequence is shown, tags need not be part of it.

Holding throughout (assay): EMSA
Data set [1] concerns the target T1, OsFD7 (OsbZIP62)-GST (Oryza sativa (rice)) (UniProt B7F384).
T1 sequence (looked up, limits assumed): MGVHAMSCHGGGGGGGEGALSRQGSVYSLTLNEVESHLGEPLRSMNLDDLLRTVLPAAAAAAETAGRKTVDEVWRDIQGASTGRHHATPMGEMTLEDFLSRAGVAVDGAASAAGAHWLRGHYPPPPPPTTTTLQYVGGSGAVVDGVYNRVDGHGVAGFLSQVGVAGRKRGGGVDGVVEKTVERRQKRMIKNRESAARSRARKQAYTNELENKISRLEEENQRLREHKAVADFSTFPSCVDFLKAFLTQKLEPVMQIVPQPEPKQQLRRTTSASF

The target of data set [2] is T2, OsGF14b-GST (Oryza sativa (rice)) (UniProt Q7XTE8).
T2 sequence (looked up, limits assumed): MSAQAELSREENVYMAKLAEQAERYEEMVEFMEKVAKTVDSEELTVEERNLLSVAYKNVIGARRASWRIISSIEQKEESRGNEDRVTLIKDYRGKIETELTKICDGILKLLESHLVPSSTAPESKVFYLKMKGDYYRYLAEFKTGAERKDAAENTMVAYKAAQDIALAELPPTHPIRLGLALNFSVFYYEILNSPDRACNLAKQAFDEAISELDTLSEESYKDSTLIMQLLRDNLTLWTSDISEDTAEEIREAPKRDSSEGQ

Data set [3] addresses OsFTL1-GST (Oryza sativa (rice)) (UniProt B7ELI3).
Data set [4] concerns OsFD7 (OsbZIP62)-GST + OsFTL1-GST + OsGF14b-GST. As to conditions: supershift with all three proteins.
For data set [5], the system named is OsFD7 (OsbZIP62)-GST + OsFTL1-GST. To be noted: supershift.

“AATGCAAAGCGAAGGTGACACT (double strand) [Non CB oligo]”: in data set [1], the binding result is “no binding”.
For the sequence “CTTCACGAGACGTCGATAATCA (double strand) [CB oligo]”, the binding result in data set [1] is recorded as “binds”; in data set [2], “no binding”; in data set [3] it was “no binding”; in data set [4] it was “binds”; in data set [5], “binds”.
Take “TATGGTGAAGCGATTGCCTAG (double strand) [Non GB oligo]”: the binding result in data set [1] is “no binding”.

The record behind these values is publication doi:10.1101/2021.03.09.434543.
